No constants are given. Whether binding was seen depends on the method and setting. In cells and extracts the contact can be indirect. Here binding means that the protein was enriched with, or labelled near, the bait; the list need not be complete.
Target: histone deacetylase 3 (HDAC3) (human (endogenous in 293T)) (UniProt O15379)
Test: affinity purification with mass spectrometry; HDAC3 immunoprecipitated from control and Nup358-depleted 293T cells as for the co-IP; on-bead digestion with Trypsin/Lys-C, LC-MS/MS

The chains behind the UniProt entries cited, without tags or fusion partners.
UniProt O15379: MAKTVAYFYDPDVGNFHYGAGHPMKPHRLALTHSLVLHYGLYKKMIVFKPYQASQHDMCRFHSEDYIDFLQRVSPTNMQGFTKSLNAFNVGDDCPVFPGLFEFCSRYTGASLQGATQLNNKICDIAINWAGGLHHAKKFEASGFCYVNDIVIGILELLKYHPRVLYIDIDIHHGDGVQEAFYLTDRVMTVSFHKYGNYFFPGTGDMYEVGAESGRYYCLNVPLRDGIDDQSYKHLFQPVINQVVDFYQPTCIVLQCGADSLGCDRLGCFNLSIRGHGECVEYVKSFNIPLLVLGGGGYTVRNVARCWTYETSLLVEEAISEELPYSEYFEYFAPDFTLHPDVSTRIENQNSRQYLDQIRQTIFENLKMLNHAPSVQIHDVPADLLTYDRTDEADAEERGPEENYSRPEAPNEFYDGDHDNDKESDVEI
UniProt P49792: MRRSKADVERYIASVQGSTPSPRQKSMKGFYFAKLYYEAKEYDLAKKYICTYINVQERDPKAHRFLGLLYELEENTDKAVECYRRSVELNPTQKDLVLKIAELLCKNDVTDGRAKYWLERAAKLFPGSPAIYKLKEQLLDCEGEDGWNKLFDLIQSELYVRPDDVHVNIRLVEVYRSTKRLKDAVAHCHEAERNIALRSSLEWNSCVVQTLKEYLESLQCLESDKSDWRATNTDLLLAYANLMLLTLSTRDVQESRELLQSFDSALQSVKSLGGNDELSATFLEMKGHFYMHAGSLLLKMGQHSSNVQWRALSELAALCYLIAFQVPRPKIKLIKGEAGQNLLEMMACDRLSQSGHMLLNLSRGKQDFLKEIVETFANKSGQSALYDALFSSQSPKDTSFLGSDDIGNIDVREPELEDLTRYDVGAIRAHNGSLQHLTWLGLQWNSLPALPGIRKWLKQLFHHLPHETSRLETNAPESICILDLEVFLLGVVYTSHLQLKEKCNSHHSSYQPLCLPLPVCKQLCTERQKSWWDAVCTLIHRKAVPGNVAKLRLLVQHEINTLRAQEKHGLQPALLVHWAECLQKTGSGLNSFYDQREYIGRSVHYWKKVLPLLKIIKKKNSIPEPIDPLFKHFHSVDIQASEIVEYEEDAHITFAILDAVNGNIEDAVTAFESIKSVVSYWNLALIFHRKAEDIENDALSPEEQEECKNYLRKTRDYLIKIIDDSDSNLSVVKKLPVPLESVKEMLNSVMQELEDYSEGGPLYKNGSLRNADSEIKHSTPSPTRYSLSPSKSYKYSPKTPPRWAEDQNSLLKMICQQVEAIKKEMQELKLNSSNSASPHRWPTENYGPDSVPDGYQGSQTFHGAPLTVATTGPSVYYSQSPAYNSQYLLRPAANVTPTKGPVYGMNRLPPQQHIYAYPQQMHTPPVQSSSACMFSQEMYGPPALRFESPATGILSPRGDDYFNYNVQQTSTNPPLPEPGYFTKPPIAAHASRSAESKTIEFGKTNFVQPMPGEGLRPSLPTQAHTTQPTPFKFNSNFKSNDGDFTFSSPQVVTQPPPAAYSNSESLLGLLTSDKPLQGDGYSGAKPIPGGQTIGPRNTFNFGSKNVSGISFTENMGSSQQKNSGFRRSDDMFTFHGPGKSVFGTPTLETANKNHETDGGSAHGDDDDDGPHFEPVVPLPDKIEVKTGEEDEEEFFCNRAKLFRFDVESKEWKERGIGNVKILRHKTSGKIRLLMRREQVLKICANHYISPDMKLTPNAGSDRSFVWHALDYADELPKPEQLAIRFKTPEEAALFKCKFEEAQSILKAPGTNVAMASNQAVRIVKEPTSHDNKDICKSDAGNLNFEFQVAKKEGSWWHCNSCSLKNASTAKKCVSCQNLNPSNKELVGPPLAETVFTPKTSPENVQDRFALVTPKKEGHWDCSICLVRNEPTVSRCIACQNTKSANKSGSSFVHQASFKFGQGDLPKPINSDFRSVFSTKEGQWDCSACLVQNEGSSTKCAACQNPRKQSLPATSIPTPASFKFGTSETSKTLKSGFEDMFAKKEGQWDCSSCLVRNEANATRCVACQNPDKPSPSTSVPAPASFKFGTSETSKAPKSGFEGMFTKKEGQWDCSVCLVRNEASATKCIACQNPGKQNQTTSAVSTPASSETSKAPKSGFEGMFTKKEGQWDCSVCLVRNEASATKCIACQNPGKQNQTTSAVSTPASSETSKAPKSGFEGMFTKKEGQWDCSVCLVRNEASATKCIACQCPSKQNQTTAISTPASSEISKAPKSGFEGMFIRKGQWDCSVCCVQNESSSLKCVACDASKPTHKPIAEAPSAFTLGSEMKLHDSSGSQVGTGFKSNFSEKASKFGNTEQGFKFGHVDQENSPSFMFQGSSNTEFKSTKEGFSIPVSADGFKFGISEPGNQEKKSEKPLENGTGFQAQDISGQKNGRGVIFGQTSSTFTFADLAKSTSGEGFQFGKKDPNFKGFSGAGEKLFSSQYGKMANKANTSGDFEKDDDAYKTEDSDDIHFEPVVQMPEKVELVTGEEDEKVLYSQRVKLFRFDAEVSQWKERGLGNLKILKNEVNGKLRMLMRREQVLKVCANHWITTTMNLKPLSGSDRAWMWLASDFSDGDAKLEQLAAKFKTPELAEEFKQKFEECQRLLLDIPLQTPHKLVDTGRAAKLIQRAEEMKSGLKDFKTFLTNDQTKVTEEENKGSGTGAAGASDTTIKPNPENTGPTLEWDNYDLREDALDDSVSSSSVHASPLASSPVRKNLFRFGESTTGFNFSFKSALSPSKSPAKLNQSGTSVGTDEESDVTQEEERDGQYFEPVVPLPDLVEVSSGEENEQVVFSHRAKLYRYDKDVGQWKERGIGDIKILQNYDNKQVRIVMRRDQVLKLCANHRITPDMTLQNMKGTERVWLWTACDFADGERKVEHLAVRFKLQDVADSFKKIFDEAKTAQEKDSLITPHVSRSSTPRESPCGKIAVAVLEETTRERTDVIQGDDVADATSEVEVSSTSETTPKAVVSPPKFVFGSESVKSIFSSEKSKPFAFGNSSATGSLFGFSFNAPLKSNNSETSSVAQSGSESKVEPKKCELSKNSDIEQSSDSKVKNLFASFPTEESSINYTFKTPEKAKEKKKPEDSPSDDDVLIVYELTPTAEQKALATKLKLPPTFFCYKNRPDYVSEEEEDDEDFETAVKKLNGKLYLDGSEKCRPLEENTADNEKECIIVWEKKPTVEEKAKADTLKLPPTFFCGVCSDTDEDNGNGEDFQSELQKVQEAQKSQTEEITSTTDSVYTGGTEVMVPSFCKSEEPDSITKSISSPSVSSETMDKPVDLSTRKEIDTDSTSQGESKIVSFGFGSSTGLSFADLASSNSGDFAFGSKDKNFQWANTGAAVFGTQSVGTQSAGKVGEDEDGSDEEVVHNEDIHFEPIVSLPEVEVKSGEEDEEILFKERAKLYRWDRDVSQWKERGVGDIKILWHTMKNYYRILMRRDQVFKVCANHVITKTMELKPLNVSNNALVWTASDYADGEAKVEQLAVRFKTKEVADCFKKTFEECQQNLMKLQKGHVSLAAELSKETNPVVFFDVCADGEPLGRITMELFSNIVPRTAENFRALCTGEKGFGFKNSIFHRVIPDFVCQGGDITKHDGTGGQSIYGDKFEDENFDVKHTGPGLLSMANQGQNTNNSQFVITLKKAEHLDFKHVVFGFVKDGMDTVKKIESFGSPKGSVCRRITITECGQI

binding: binds
Substance: Nup358, also known as RanBP2 (from UniProt P49792 1-3224)

— article PMC11152124
